Laboratory results reported in patent US20020106729A1.
No constants are given. Whether binding was seen depends on the method and setting. Some binding calls cover weakened binding; strength is not graded here.

The chains behind the UniProt entries cited, without tags or fusion partners. Residues count along the entry.
UniProt P06731, residues 35-685: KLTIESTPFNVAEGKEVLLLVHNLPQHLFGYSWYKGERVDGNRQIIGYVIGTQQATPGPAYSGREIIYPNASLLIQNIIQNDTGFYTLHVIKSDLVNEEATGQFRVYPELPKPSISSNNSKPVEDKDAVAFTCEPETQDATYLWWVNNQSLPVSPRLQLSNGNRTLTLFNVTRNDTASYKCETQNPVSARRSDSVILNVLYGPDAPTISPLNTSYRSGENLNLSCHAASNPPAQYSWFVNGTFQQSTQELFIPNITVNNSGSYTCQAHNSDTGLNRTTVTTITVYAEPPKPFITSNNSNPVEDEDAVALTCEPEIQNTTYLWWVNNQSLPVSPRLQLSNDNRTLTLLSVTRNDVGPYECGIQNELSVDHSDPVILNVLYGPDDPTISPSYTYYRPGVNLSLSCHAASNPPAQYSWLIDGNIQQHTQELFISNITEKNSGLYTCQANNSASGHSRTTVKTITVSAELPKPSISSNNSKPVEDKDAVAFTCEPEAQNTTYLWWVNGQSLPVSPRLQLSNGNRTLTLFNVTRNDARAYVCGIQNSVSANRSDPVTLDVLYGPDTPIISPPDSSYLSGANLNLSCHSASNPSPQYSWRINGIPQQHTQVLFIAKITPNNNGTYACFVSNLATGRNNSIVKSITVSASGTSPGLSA

Biological target: CEA (UniProt P06731)
Test: CEA binding ELISA on culture media of transduced cells, compared with a human IgG ELISA

B1: MN14 antibody (antibody, V domains shown)
VH: EVQLVESGGGVVQPGRSLRLSCSASGFDFTTYWMSWVRQAPGKGLEWIGEIHPDSSTINYAPSLKDRFTISRDNAKNTLFLQMDSLRPEDTGVYFCASLYFGFPWFAYWGQGTPVTVSS
VL: DIQLTQSPSSLSASVGDRVTITCKASQDVGTSVAWYQQKPGKAPKLLIYWTSTRHTGVPSRFSGSGSGTDFTFTISSLQPEDIATYYCQQYSLYRSFGQGTKVEIKR
  binding: binds
